The record followed here is patent US8557816B2, “Aurora kinase modulators and method of use” (Amgen Inc., priority 2007, dated 2013).

By UniProt entry, the sequences of proteins in these tests, tags left out. Residues count along the entry.
UniProt O14965, 133-383 limits assumed: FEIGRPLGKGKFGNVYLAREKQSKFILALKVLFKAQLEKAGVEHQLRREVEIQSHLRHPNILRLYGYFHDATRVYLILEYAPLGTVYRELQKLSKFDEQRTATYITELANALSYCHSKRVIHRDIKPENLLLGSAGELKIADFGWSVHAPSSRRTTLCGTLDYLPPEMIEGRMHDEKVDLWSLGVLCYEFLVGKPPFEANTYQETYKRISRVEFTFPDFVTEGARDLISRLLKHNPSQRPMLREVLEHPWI
UniProt Q9ULW0, 1-43 partner limits assumed: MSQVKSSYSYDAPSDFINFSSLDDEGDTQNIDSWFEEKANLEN

Values joined by “and” are separate entries in the source; they are usually repeats but may differ in a detail not shown here. Equal values may be shown once. Structures were worked out from names or drawings and are uncertain.

This assay deals with AuroraA-TPX2 (Homo sapiens, UniProt O14965). Nature of the assay: AuroraA-TPX2 Homogeneous Time Resolved Fluorescent (HTRF) kinase assay. The settings on record: read-out: AurA_IC50_IP (uM Avg); average. (In general: In TR-FRET formats the signal depends on donor and acceptor labels being close together.)

On to `Cc1ccc(-c2nnc(Nc3ccc(Oc4ccnc5ccccc45)cc3)c3ccccc23)cc1N`, for which the IC50 is 0.126 µM and 0.116 µM.
Take `COc1cnc2c(Sc3ccc(Nc4nnc(N5CCN6CCCCC[C@@H]6C5)c5ccccc45)cc3)ccnc2c1`: the IC50 is 0.018 µM and 0.017 µM.
